Values of other authors, collected in US5028625A, “Acid addition salt of ibuprofen and meglumine” (priority 1989, dated 1991).

Settings: cited from earlier work

CC(C)Cc1ccc(C(C)C(=O)O)cc1 (centres unmarked) [ibuprofen, Ibuprofen]
solubility in water (background statement): sparingly soluble in water
ibuprofen aqueous solubility (water): 0.006 % weight by volume
